Experimental data as given in patent US20190374481A1, “ADMINISTRATION REGIMEN FOR A PHARMACEUTICAL PATCH COMPRISING LIDOCAINE AND DICLOFENAC” (TEIKOKU SEIYAKU CO., LTD., priority 2017, published 2019).
Some of these results come from one statement about several compounds together.

What was measured:
[1] = test system: CFA-hindpaw inflammation; assay: CFA-hindpaw inflammation, paw pressure test (CFA-PPT), intraperitoneal injection; type: in vivo, rat; conditions: Lidocaine 21.5 mg/kg ip
Protocol: An interaction study was performed as a single dose study in the CFA-hindpaw inflammation, paw pressure test.
In comparative example 1 and inventive examples 1 to 4 described below, a compound or combination of compounds was administered by intraperitoneal injection (FIGS. 1 to 9).
(§1) The pain was measured by pressing a pointer on the inflamed paw. The pointer exerts a force, increasing at a constant rate, monitored by a linear scale. Pain is deemed to be perceived one the rat starts to withdraw the paw. This value (withdrawal threshold in gram) is the pressure at which the animal feels pain (cut-off 450 g). Efficacy of the test compounds is expressed as a percent change of withdrawal threshold after compound administration to the pre-value (withdrawal threshold before compound administration).

[2] = test system: CFA-induced edema of paw / mechanical-hyperalgesia; assay: CFA-hindpaw inflammation, paw pressure test (CFA-PPT), topical application to the paw; type: in vivo, rat
Protocol: In comparative example 2 and inventive examples 5 to 8 as described below, a compound or combination of compounds was administered topically to the paw by means of an ointment or solution (FIGS. 10 to 18).
The efficacy was tested when a compound or a compositions of compounds was administered topically as an ointment or a solution. The study was performed on male albino rats (150-180 g body weight) to which an edema of paw was induced by injection of Complete Freunds Adjuvant (CFA). CFA is a composition of inactivated and dried Myobacteria tuberculoses, emulsified in mineral oil which is used as an immunopotentiator causing a painful reaction that lasts 7-8 days after subcutaneous injection.
The studies of comparative example 2 and inventive examples 5 to 8 were performed according to the following procedure: 50 μL of CFA were injected sub plantar into the right hind paw, inducing mechanical-hyperalgesia after 24 hours. […]
as §1, with “Pain is deemed to be perceived one the rat starts to withdraw the paw. This value (withdrawal threshold in gram) is the pressure at which the animal feels pain (cut-off 450 g).” left out

Structure (SMILES): CCN(CC)CC(=O)Nc1c(C)cccc1C [Lidocaine, 2-(diethylamino)-N-(2,6-dimethylphenyl)acetamide]
- efficacy (% change to prevalue) when given alone [1]: 20-25%
- efficacy (% change to prevalue) ([2]; Lidocaine 40 mg/ml topical alone, 150 to 180 min window): under 15%
- efficacy (% change to pre-value) when given alone ([2]; Lidocaine 40 mg/ml topical, alone, after 90 min): 15-25%
